We go through 16 targets from the supplement of paper PMC10849652.

Amino acid sequences for entries named in this document (tags omitted). A change or cut given only in a name is not applied to a line headed by its entry.
UniProt P22392, whole entry, looked up: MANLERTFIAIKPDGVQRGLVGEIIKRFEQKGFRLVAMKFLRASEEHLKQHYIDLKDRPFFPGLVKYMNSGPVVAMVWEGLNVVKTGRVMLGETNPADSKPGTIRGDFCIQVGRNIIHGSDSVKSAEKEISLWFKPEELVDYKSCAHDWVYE
UniProt O00567: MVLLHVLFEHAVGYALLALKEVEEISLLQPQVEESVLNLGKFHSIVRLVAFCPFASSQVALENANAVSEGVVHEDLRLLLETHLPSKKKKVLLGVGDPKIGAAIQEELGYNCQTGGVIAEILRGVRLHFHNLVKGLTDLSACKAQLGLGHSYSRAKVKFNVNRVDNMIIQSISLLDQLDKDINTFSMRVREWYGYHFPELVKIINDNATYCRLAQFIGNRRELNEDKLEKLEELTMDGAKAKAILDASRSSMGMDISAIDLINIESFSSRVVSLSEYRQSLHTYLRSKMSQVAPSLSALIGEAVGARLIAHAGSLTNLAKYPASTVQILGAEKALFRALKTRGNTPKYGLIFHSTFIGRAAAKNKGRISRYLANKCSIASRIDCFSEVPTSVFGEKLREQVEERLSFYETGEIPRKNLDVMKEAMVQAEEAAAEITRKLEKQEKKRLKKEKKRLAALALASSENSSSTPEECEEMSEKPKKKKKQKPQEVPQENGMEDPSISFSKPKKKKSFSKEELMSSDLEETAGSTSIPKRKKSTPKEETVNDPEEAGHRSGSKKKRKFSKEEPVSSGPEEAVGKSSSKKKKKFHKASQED
UniProt Q8WUM0: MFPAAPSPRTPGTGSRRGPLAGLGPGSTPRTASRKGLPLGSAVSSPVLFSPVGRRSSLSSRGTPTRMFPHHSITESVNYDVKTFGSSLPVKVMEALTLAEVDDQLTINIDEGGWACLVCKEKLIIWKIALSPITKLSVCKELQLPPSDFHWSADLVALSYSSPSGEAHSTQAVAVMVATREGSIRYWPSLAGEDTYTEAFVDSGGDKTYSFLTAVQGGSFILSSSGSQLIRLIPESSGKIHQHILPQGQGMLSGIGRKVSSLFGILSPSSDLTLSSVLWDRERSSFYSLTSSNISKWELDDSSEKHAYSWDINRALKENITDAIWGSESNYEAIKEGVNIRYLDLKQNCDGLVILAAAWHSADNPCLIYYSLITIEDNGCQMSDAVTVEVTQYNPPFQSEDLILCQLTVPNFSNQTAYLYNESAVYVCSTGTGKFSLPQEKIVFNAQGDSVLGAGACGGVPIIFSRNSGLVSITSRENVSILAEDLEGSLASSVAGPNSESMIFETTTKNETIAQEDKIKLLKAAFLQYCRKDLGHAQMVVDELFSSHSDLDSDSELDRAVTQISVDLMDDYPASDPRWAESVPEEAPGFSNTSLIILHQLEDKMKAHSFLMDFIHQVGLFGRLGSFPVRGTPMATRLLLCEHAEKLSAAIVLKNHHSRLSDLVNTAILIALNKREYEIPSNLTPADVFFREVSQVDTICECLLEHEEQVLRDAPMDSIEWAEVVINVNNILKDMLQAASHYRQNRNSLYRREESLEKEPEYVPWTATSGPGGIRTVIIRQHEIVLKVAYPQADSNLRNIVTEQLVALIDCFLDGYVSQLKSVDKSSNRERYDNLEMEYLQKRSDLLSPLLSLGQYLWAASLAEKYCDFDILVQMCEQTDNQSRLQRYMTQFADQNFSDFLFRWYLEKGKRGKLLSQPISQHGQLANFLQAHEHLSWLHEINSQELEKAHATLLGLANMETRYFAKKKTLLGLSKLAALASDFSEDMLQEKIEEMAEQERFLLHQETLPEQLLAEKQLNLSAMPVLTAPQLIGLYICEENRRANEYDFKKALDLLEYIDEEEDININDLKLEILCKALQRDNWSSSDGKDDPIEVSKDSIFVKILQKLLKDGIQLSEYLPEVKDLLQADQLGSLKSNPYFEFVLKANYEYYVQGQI
UniProt Q9UMY1: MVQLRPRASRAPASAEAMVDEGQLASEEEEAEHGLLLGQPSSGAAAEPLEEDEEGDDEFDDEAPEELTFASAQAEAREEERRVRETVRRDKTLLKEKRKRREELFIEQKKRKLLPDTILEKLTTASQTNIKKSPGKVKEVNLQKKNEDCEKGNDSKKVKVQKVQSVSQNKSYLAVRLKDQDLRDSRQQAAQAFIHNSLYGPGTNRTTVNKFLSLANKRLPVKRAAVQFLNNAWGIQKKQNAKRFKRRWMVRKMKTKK
UniProt Q96P11: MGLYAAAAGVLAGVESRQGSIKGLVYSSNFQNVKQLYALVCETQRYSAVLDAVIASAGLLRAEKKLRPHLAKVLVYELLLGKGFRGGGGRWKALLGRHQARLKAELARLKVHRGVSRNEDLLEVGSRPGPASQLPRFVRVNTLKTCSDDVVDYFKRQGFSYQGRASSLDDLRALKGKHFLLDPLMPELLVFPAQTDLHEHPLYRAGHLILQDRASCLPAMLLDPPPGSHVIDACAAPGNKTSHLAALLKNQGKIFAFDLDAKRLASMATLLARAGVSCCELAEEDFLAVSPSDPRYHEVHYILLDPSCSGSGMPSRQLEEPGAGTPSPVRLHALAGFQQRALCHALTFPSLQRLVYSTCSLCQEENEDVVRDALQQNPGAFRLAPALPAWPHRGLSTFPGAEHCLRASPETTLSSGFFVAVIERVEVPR
UniProt Q9BRJ7: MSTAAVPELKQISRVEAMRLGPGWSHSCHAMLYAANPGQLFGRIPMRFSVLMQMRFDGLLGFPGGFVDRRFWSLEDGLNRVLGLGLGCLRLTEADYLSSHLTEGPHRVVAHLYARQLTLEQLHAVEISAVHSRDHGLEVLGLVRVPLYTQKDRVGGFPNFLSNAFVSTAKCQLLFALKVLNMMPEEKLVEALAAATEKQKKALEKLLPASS
UniProt Q9H8H0: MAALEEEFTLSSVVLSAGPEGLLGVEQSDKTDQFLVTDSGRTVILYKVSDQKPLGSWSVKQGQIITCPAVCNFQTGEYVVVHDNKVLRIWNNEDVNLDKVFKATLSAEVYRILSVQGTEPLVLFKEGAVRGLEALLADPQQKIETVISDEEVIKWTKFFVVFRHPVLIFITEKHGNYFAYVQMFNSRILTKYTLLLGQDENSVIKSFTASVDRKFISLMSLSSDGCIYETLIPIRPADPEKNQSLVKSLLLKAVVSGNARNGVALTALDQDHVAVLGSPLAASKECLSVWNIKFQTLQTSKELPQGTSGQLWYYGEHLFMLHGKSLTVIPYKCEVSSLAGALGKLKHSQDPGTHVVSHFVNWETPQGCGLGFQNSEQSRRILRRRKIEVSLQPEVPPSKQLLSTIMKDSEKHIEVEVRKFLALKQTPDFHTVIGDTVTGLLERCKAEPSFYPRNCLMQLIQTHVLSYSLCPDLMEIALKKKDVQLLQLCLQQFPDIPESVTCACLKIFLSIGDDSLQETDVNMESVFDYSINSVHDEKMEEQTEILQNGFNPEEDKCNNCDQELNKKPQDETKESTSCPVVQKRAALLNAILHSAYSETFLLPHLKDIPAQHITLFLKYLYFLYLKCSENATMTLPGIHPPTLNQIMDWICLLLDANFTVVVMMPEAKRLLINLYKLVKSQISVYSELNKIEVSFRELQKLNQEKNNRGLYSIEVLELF
UniProt O60551: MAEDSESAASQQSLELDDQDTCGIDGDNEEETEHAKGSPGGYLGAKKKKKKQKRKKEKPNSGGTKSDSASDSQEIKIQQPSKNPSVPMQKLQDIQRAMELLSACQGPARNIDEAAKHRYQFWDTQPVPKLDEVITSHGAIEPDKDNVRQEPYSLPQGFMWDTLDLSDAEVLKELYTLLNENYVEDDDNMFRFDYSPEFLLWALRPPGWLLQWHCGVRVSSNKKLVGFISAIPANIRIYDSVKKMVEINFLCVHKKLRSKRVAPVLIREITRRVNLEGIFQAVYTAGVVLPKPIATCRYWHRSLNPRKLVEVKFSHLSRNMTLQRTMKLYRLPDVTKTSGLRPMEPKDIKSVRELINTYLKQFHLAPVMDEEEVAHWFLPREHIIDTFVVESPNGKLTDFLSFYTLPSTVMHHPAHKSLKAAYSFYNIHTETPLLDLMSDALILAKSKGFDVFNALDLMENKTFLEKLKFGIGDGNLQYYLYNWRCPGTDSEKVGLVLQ
UniProt Q96RS6: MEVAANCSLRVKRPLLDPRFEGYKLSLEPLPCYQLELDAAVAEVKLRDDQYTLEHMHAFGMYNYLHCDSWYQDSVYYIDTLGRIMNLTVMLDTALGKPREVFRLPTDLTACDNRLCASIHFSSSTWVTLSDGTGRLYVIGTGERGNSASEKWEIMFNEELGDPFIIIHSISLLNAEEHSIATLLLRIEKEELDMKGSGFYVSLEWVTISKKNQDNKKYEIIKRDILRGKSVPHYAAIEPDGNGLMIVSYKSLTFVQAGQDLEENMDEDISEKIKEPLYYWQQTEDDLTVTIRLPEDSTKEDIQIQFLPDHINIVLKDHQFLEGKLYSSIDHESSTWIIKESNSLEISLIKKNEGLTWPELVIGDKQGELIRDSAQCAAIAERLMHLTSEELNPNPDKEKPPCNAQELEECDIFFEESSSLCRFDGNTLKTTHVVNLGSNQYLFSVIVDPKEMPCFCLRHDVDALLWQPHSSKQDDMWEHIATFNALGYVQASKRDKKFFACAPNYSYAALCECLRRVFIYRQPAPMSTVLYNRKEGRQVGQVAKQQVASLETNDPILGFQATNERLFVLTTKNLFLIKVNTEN
UniProt Q5JPE7: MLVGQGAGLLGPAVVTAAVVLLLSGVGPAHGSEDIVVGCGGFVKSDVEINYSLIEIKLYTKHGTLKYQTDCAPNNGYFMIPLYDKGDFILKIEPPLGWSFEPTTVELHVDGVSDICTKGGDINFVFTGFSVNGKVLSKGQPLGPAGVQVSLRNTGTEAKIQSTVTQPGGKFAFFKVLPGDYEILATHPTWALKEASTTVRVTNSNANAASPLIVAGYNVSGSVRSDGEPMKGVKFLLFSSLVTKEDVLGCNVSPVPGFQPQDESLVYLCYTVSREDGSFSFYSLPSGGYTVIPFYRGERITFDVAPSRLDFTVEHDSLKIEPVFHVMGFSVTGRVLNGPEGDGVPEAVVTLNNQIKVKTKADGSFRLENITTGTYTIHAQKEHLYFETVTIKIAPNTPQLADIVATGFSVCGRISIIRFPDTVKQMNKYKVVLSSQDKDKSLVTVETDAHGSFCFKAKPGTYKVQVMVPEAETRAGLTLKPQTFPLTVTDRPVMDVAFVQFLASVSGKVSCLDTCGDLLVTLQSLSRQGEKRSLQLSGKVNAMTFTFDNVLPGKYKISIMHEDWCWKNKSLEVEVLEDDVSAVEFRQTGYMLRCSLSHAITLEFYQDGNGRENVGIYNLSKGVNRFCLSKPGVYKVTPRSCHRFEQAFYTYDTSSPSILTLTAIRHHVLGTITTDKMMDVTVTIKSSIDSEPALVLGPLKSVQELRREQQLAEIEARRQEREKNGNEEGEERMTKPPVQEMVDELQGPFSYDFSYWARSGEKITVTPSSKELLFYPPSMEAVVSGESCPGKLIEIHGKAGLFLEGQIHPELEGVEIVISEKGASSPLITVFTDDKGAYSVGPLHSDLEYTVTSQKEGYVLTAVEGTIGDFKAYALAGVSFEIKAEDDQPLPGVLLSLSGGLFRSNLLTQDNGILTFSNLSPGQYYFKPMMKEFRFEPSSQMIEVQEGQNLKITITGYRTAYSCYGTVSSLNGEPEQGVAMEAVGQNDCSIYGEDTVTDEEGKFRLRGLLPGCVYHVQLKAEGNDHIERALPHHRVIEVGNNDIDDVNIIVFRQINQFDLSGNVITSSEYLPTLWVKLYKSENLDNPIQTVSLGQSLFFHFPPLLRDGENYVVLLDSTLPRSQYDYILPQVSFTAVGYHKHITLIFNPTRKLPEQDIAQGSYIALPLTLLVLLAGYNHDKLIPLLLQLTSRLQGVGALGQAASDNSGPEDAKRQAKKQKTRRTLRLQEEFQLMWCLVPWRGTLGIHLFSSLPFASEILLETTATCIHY
UniProt Q9Y639: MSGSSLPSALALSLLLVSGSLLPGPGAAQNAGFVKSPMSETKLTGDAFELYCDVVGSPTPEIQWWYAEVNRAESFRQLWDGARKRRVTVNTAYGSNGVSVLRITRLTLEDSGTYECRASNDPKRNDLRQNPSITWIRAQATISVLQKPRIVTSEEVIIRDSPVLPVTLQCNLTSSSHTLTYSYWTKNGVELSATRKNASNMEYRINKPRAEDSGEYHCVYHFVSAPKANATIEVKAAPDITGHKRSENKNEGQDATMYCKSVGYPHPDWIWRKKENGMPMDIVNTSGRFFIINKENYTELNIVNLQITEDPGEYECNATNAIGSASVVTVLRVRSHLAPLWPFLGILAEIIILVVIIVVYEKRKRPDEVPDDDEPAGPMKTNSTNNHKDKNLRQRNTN

What all share (test): log2 fold change, soluble protein after heating vs DMSO (PISA); higher = thermal stabilisation; K562 lysate, 10 uM; active = over 0.2 and 3.5 SD of the protein, either way, in both replicates (recomputed)
Compound in one assay: CS(=O)(=O)CCNCc1ccc(-c2ccc3ncnc(Nc4ccc(OCc5cccc(F)c5)c(Cl)c4)c3c2)o1 [lapatinib]
In short, it runs like this: (§1)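 To prepare the extract, K562 pellets were dounce-homogenised in PBS pH 7.4 with 1 mM MgCl2, giving crude material at 1 mg/mL protein. This was treated with 10 μM compound for 30 min, then heated in aliquots for 3 min over 48°C-58°C before pooling and addition of NP-40 to 0.5% at 4°C. Centrifugation at 21,000xg for 90 min left soluble protein in the supernatant, which TMTpro 16plex LC-MS/MS quantified with equalised channel sums. Results are log-two fold changes in thermal stability compared with solvent controls, from duplicates.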

Compound in another assay: CS(=O)(=O)N1CCN(Cc2cc3nc(-c4cccc5[nH]ncc45)nc(N4CCOCC4)c3s2)CC1 [pictilisib]
The gist of the method: as §1

Compound in another assay: C[C@@H](Oc1cc(-c2cnn(C3CCNCC3)c2)cnc1N)c1c(Cl)ccc(F)c1Cl [crizotinib]
In short, it runs like this:
as §1

Compound in assay [1]: C[C@H](C1=CC=C(C=C1)C(=O)NC2=C3C=CNC3=NC=C2)N
In short, it runs like this: as §1

Compound in a further assay: C[C@H](Nc1ncnc2nc[nH]c12)c1cc2cccc(Cl)c2c(=O)n1-c1ccccc1 [duvelisib]
The gist of the method: as §1

Compound in the next assay: Cc1cc(Nc2cc(CN3CCOCC3)c3nc(C)c(Cc4ccc(Cl)cc4F)n3n2)n[nH]1 [gandotinib]
In short, it runs like this: as §1

Compound in another assay: Cc1cc(Nc2cc(N3CCN(C)CC3)nc(Sc3ccc(NC(=O)C4CC4)cc3)n2)n[nH]1 [tozasertib]
In short, it runs like this:
as §1

Compound in another assay: Cc1ccc(-n2nc(C(C)(C)C)cc2NC(=O)Nc2ccc(OCCN3CCOCC3)c3ccccc23)cc1 [doramapimod]
The gist of the method:
as §1

Compound in a further assay: Cc1ccc(NC(=O)c2ccc(CN3CC[C@H](N(C)C)C3)c(C(F)(F)F)c2)cc1Nc1nccc(-c2cncnc2)n1 [bafetinib]
The gist of the method:
as §1

Compound in assay [2]: Cc1cccc(CC(=O)N2CCc3c2ccc(-c2cn(C)c4ncnc(N)c24)c3F)n1
In short, it runs like this:
as §1

This is one part of the list.

For the target NTMT1 (UniProt S4R338), in the assay with lapatinib, the log2 fold change was inactive: 0.082.

In the case of NT5DC1 (UniProt Q5TFE4), the log2 fold change with lapatinib was inactive: 0.032; in the assay with pictilisib, inactive: 0.004; with crizotinib it was inactive: -0.002; in [1], inactive: -0.017; with duvelisib, inactive: -0.019; with gandotinib, inactive: 0.037. Also, the log2 fold change with tozasertib was inactive: -0.022; with doramapimod, inactive: 0; with bafetinib, inactive: 0.027; in assay [2] it was inactive: -0.028.

For NRAS (UniProt P01111), the log2 fold change with lapatinib was inactive: 0.008; with pictilisib, inactive: -0.018; with crizotinib, inactive: 0.08; in [1] it was inactive: 0.017; in the assay with duvelisib, inactive: 0.003; in the assay with gandotinib, inactive: 0.004. Besides, the log2 fold change was inactive: -0.013 in the assay with tozasertib, inactive: -0.049 with doramapimod, inactive: 0.009 with bafetinib and inactive: 0.005 in assay [2].

On to NME2 isoform 2 (UniProt P22392), for which the log2 fold change is inactive: -0.003 in the assay with lapatinib; inactive: 0.009 with pictilisib; inactive: 0.018 with crizotinib; inactive: -0.045 in assay [1]; inactive: 0.006 in the assay with duvelisib; inactive: 0.049 with gandotinib. The log2 fold change was inactive: -0.026 with tozasertib, inactive: 0.011 with doramapimod, inactive: 0.027 in the assay with bafetinib and inactive: 0.014 in [2].

As for NOP56 (UniProt O00567), the log2 fold change was inactive: -0.034 with lapatinib; inactive: -0.01 in the assay with pictilisib; inactive: -0.013 with crizotinib; inactive: 0.037 in assay [1]; inactive: 0.006 with duvelisib; inactive: -0.114 with gandotinib. Further, the log2 fold change in the assay with tozasertib was inactive: -0.037; with doramapimod, inactive: -0.041; with bafetinib, inactive: -0.015; in [2] it was inactive: -0.012.

For NUP133 (UniProt Q8WUM0), the log2 fold change with lapatinib was inactive: -0.007; with pictilisib, inactive: -0.01; with crizotinib, inactive: -0.093; in assay [1], inactive: -0.075; with duvelisib, inactive: -0.01; with gandotinib, active: 0.251. The log2 fold change with tozasertib was inactive: 0.042; in the assay with doramapimod it was inactive: 0.061; with bafetinib, inactive: -0.074; in [2], inactive: 0.218.

NOL7 (UniProt Q9UMY1): the log2 fold change in the assay with lapatinib was inactive: 0.001; with pictilisib, inactive: -0.055; with crizotinib it was inactive: 0.063; in [1], inactive: 0.119; with duvelisib, inactive: -0.077; in the assay with gandotinib, inactive: -0.045. The log2 fold change with tozasertib was inactive: 0.009; in the assay with doramapimod, inactive: 0.153; with bafetinib it was inactive: 0.117; in assay [2], inactive: -0.125.

NSUN5 isoform 2 (UniProt Q96P11): the log2 fold change with lapatinib is inactive: 0.017; with pictilisib it was inactive: 0.012; with crizotinib it was inactive: -0.014; in assay [1] it was inactive: 0.027; in the assay with duvelisib it was inactive: -0.008; with gandotinib, inactive: -0.018. Moreover, the log2 fold change with tozasertib is inactive: 0.034; in the assay with doramapimod it was inactive: -0.018; with bafetinib, inactive: 0; in assay [2] it was inactive: 0.021.

For the target NOP53 (UniProt Q9NZM5), the log2 fold change with lapatinib is inactive: -0.011; with pictilisib, inactive: 0.085; with crizotinib, inactive: -0.013; in assay [1] it was inactive: 0.112; with duvelisib it was inactive: 0.036; with gandotinib, inactive: -0.053. Also, the log2 fold change in the assay with tozasertib was inactive: 0.118; with doramapimod it was inactive: 0.008; with bafetinib it was inactive: 0.03; in [2], inactive: -0.121.

For NUDT16L1 (UniProt Q9BRJ7), the log2 fold change with lapatinib was inactive: -0.001; in the assay with pictilisib, inactive: 0; with crizotinib it was inactive: 0.017; in assay [1], inactive: 0.002; with duvelisib, inactive: 0.057; in the assay with gandotinib, inactive: -0.177. Besides, the log2 fold change is inactive: 0.059 in the assay with tozasertib, inactive: -0.01 with doramapimod, inactive: -0.018 with bafetinib and inactive: 0.056 in [2].

In the case of NOL11 (UniProt Q9H8H0), the log2 fold change in the assay with lapatinib was inactive: -0.008; in the assay with pictilisib, inactive: -0.024; with crizotinib, inactive: -0.02; in assay [1], inactive: -0.133; in the assay with duvelisib it was inactive: 0.025; with gandotinib, inactive: 0.031. Moreover, the log2 fold change in the assay with tozasertib is inactive: 0.011; with doramapimod, inactive: 0.044; with bafetinib it was inactive: -0.026; in [2], inactive: 0.137.

As for NMT2 (UniProt O60551), the log2 fold change with lapatinib was inactive: -0.022; with pictilisib, inactive: -0.01; in the assay with crizotinib, inactive: -0.004; in assay [1] it was inactive: -0.017; with duvelisib, inactive: 0.028; in the assay with gandotinib, inactive: 0.007. Further, the log2 fold change was inactive: 0.012 in the assay with tozasertib, inactive: 0.023 with doramapimod, inactive: 0.015 with bafetinib and inactive: 0.052 in assay [2].

In the case of NUDCD1 (UniProt Q96RS6), the log2 fold change with lapatinib is inactive: -0.006; with pictilisib it was inactive: 0.002; with crizotinib it was inactive: -0.003; in assay [1], inactive: -0.046; with duvelisib, inactive: -0.01; with gandotinib, inactive: 0.015. The log2 fold change is inactive: 0.007 with tozasertib, inactive: -0.006 with doramapimod, inactive: -0.037 with bafetinib and inactive: 0.028 in [2].

Turning to NME3 (UniProt H3BPR2), in the assay with lapatinib, the log2 fold change is inactive: -0.078.

Consider NOMO2 (UniProt Q5JPE7), for which the log2 fold change with lapatinib is inactive: -0.025; with pictilisib, inactive: -0.038; in the assay with crizotinib, inactive: -0.032; in assay [1] it was inactive: -0.014; with duvelisib, inactive: -0.02; with gandotinib it was inactive: 0.007. Further, the log2 fold change was inactive: -0.026 with tozasertib, inactive: 0.013 with doramapimod, inactive: -0.027 with bafetinib and inactive: 0.044 in [2].

Take NPTN (UniProt Q9Y639): the log2 fold change with lapatinib is inactive: -0.057; with pictilisib, inactive: -0.045; with crizotinib it was inactive: -0.058; in assay [1] it was inactive: -0.011; with duvelisib, inactive: 0.049; in the assay with gandotinib it was inactive: 0.003. Also, the log2 fold change is inactive: 0.007 with tozasertib, inactive: 0.056 in the assay with doramapimod, inactive: -0.029 with bafetinib and inactive: 0.011 in [2].
